Data published in the supplement of paper PMC10849652.
This is one part of the list.

Chains of the proteins cited; added tags and fusions are not shown. Lines headed by an entry give the natural chain unless they say otherwise; changes in a name come on top.
UniProt Q04656: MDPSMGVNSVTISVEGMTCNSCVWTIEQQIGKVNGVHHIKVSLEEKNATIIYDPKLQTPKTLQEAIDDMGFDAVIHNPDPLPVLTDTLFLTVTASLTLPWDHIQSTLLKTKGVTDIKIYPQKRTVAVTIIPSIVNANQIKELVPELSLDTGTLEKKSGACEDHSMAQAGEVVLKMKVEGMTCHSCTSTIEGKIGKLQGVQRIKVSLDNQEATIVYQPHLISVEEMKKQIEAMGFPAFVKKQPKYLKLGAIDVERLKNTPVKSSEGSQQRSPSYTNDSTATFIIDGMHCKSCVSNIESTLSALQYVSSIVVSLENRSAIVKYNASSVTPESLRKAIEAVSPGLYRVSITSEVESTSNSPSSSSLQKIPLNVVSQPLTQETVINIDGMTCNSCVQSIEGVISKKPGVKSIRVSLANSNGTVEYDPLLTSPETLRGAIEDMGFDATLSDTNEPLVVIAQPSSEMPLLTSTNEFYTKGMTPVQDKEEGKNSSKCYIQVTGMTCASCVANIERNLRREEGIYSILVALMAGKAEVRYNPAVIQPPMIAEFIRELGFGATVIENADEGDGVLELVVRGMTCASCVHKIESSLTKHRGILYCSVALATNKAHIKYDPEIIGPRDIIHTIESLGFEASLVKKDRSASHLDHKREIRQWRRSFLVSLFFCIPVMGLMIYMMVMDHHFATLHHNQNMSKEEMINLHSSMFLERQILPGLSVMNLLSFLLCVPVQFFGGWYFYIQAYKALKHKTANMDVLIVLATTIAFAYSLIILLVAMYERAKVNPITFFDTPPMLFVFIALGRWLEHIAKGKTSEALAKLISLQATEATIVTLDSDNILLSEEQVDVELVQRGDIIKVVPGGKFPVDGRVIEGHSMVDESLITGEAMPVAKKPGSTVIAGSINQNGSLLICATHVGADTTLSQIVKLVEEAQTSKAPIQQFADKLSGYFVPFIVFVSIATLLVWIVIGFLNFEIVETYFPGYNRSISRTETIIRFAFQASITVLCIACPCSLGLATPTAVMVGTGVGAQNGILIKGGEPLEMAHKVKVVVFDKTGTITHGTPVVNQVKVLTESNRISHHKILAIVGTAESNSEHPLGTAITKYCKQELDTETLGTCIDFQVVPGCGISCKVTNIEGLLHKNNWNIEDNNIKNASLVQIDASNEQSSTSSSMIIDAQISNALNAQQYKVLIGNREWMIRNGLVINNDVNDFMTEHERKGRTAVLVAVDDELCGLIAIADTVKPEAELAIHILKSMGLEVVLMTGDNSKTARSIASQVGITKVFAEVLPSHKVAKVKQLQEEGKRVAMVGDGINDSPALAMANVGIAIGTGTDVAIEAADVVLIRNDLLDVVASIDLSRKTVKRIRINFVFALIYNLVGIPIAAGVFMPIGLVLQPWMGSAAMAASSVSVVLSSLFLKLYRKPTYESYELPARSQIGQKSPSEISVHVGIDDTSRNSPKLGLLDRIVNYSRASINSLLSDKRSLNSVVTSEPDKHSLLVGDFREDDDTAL
UniProt P56381: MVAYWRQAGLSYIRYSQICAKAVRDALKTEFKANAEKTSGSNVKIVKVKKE
UniProt P25705: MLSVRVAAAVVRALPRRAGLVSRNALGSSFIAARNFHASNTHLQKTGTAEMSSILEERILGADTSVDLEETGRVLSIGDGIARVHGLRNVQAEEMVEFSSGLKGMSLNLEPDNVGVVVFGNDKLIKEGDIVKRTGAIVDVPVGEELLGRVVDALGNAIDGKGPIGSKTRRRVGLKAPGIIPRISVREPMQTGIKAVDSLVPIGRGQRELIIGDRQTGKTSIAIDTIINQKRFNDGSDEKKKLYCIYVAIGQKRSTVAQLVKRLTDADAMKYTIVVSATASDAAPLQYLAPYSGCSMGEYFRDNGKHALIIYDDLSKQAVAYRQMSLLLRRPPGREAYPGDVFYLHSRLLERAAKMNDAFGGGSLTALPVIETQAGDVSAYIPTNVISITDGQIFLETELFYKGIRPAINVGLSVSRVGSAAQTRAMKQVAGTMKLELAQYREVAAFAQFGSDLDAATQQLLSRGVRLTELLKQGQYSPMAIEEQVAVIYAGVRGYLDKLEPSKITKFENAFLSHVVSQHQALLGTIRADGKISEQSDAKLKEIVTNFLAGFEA
UniProt P04424, whole entry, looked up: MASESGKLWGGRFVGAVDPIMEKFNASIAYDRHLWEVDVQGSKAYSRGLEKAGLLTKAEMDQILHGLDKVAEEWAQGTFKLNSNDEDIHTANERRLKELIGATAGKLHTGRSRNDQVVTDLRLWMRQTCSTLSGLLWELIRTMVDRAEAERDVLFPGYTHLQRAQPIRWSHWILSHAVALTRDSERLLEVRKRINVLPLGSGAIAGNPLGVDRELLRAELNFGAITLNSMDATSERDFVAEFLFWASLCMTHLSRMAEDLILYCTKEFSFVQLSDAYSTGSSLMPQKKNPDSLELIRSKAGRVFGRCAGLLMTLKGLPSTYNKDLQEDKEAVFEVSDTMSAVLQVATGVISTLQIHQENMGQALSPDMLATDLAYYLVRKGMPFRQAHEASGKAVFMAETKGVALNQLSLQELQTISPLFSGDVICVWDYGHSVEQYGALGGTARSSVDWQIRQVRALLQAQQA
UniProt Q92747, whole entry, looked up: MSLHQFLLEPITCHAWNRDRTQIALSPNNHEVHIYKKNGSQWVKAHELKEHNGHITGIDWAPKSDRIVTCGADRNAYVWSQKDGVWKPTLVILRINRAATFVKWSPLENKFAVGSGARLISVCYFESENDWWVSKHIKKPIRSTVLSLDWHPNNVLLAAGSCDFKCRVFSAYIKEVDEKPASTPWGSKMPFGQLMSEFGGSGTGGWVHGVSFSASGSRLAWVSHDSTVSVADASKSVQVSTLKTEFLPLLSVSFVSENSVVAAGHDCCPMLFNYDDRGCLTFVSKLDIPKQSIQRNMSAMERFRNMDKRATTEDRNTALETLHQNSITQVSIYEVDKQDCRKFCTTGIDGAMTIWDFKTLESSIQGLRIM
UniProt Q6P4H8: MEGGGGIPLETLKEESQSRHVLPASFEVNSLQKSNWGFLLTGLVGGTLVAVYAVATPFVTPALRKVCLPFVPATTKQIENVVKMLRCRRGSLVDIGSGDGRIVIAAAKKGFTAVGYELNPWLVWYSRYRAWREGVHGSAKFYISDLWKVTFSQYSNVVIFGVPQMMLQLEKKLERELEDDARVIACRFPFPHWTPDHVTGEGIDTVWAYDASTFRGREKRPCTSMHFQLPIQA
UniProt Q5TC12: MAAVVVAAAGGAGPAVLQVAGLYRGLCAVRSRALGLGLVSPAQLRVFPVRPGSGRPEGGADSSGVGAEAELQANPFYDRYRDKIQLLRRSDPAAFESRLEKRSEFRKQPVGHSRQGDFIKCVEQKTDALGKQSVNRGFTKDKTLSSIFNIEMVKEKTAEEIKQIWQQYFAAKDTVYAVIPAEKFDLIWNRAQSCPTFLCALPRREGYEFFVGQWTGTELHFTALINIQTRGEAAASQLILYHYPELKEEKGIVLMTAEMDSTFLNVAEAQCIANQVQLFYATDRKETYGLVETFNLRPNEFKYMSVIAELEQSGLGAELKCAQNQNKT
UniProt Q9H1I8: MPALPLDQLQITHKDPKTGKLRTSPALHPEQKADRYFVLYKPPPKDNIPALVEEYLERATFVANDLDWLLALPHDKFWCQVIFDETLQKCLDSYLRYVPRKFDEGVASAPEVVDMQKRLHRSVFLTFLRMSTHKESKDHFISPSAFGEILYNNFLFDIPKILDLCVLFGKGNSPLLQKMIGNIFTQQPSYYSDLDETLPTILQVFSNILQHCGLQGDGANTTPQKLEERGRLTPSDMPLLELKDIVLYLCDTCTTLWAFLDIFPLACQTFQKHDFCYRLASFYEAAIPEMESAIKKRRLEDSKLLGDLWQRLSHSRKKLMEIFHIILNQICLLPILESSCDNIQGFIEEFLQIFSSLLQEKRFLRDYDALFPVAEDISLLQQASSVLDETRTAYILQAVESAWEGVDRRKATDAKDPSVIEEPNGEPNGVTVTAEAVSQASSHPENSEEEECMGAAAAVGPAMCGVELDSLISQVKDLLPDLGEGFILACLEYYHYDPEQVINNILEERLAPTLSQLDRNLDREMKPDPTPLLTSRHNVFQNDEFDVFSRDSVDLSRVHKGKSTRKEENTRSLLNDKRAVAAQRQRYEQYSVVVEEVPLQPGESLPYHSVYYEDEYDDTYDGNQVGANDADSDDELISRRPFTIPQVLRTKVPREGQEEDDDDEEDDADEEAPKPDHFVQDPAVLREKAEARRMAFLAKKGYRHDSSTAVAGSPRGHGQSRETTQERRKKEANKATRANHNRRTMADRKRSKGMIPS
UniProt Q12797: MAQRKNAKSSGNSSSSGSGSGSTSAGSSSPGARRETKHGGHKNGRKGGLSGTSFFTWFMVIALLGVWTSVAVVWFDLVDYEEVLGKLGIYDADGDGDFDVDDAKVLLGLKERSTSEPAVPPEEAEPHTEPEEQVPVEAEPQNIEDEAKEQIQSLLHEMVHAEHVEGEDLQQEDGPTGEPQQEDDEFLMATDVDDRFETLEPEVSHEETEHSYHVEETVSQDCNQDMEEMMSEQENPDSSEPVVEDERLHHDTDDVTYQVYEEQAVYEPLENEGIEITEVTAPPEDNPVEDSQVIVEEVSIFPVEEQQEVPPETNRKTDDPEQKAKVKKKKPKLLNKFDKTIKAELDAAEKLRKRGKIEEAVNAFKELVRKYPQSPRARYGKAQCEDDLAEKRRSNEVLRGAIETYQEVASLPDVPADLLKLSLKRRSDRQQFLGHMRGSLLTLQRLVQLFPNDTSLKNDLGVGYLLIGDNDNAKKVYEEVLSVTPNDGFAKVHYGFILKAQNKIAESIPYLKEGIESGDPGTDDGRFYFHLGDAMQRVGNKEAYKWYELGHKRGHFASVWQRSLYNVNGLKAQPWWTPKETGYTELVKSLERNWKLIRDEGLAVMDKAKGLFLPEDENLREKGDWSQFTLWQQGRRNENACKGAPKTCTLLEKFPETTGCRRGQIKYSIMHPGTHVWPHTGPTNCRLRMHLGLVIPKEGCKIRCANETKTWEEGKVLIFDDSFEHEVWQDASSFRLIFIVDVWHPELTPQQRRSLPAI

Compound: c1cn2cc(-c3ccc4cn[nH]c4c3)nc(Nc3ccc(N4CCOCC4)cc3)c2n1 [entospletinib]
Assay: log2 fold change, soluble protein after heating vs DMSO (PISA); higher = thermal stabilisation; K562 cells, 10 uM, 30 min; active = over 0.2 and 3.5 SD of the protein, either way, in both replicates (recomputed)
How it was run: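 Soluble protein was defined as the supernatant after 21,000xg for 90 min. It came from K562 cells at 2×10^6 cells/mL given 10 μM compound for 30 min, heated in aliquots for 3 min across 48°C-58°C, pooled, and extracted in PBS with 0.5% NP-40 at 4°C, and was quantified by TMTpro 16plex LC-MS/MS with equalised channel sums. Thermal stability against control samples, from duplicates, is reported as log2 fold change.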

log2 fold change, inactive:
ATP7A isoform 3 (UniProt Q04656) -0.039
ATP5F1E (UniProt P56381) 0.025
ATP5F1A (UniProt P25705) -0.019
ASL (UniProt P04424) 0.023
ARPC1A (UniProt Q92747) -0.104
ATPSCKMT (UniProt Q6P4H8) 0.032
ATPAF1 (UniProt Q5TC12) 0.086
ASCC2 (UniProt Q9H1I8) -0.034
ASPH (UniProt Q12797) -0.004
